These results are taken from patent US20230265174A1.

Assay [1] has as its target T1, galectin 3-binding protein (LGALS3BP) (UniProt Q08380).
T1 sequence (looked up): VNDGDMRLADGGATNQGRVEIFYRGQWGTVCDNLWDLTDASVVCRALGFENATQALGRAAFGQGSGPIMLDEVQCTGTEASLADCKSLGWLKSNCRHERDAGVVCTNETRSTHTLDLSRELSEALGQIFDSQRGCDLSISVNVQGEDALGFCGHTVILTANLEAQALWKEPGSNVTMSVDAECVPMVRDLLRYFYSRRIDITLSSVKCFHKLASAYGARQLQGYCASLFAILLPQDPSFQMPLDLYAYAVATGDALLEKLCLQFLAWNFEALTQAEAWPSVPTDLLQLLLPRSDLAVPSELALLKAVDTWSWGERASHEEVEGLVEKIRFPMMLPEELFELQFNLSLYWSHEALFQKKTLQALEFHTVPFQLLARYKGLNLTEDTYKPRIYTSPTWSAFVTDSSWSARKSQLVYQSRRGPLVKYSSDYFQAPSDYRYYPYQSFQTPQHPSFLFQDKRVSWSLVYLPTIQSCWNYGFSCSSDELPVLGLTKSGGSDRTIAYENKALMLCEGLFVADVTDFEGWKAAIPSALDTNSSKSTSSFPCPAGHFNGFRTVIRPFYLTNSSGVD
The experiment in a line: ELISA after phage-display biopanning. In general terms: In an ELISA, binding on a coated surface is turned into a signal by an enzyme label.

Assay [2] has as its target T1, galectin 3-binding protein (LGALS3BP). Briefly: functional analysis of antibody candidates (FIG. 5), method not described.

These are yes or no findings as the source states them, for the method shown. Some results given as binding are weak or reduced against the parent protein; the word gives no strength.

B1: LGALS3BP #84 antibody (CH2-84) (scFv, V domains shown)
VH: AVTLDESGGGLQTPGGALSLVCKASGFTFNGYGMNWVRQAPGKGLEWVAGIDDTGSYTAYAPAVRGRATISRDNGQSTVRLQLNNLRAEDTATYYCAKGYGDVWGGDEIDAWGHGTEVIVSS
VL: LTQPSSVSANLGGTVKITCSGGSSGYGWHQQKSPGSAPVTVIYDNDKRPSDIPSRFSGSLSGSTNTLTITGVQAEDEAVYFCGGYDNSVGIFGAGTTLTVL
Turning to B1, the binding entry in assay [1] and in assay [2] was “binds” each time.

B2: LGALS3BP #67 antibody (CH2-67) (scFv, V domains shown)
VH: AVTLDESGGGLQTPGGALSLVCKGSGFTFSSYGLGWVRQAPGKGLEYVAGISSGGATFYGAAMKGRATISRDNGQSTVRLQLNNLRAEDTATYYCAKDARSGSWSPDAGQIDAWGHGTEVIVSS
VL: LTQPSSVSANLGGTVEITCSGSSGSHYGWFQQKSPGSAPVTLIYSNDKRPSDIPSRFSGSKSGSTATLTITGVQAEDEAVYFCGSIDSSGIFGAGTTLTVL
Take B2: the binding result in assay [1] and in assay [2] was “binds” each time.
